Results reported in PubChem BioAssay AID250 (DTP/NCI, 2004).
The list shows only some results of the screen, not a fair sample: it is rich in T/C values a quarter to a half above the control, in often repeated tests (any T/C) and in doses without a T/C. Other doses and runs of a compound stand elsewhere. T/C is the treated group as % of the vehicle group. Some doses have a count of surviving animals in place of a T/C: the source files T/C as zero there, which appears to mark a toxic dose or a test without result, not a measured value. Some doses without a T/C left all or most animals alive at the check, yet need not have been tolerated: the source hardly ever lists a survival T/C far under the control, and the zero likely stands for such cases as well. For part of these data: Counts of survivors are from the toxicity check (mostly the fifth day) where no day follows; animals may have died later. Schedules are NCI's codes, read here as Q, the interval in days (D) or hours (H), X, the number of doses. Some schedules carry Z or #; the key to these is not given. Some molecules as drawn cover several salts, stereoisomers or complexes of the source; a dose is that of the sample tested. Where survival is the endpoint, this PubChem deposit counts one and a half times the control or more as active, and values a quarter to a half above the control carry no call in these data; other NCI protocols may use other cut-offs. Some T/C values are followed by the survivors on the day toxicity was checked, most often the fifth; where none is given, no animal had died by that day. Some entries hold several experiments; their values stand side by side, smallest first.

Columns and labels:
[1] = test system: BDF1 mice, L1210 leukemia sc, survival T/C; test: NCI In Vivo Anticancer Drug Screen. Data for tumor model L1210 Leukemia (subcutaneous) in B6D2F1 (BDF1) mice; settings: T/C endpoint: median survival time, vehicle: water, higher T/C = longer survival; for T/C: schedule: Q01DX009 (sc)
Procedure, shortened: (§1)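 Transplantable tumor-bearing mice; survival or tumor size recorded; result = T/C, treated vs vehicle control.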

[2] = test system: BDF1 mice, L1210 leukemia sc; test: as above; settings: T/C endpoint: median survival time, vehicle: water, higher T/C = longer survival
Procedure, shortened: as §1

N=c1ccn2c(n1)OC1C(O)C(CO)OC12 (stereo not drawn)
T/C ([1]; dose: 39.0 mg/kg/injection, evaluated on day 7): 189 and 192 % of control | T/C ([1]; dose: 39.0 mg/kg/injection, evaluated on day 30): 166 and 194 % of control | T/C ([1]; dose: 39.0 mg/kg/injection, evaluated on day 31): 188 % of control | T/C ([1]; dose: 47.0 mg/kg/injection, evaluated on day 7): 174 and 187 % of control | T/C ([1]; dose: 47.0 mg/kg/injection, evaluated on day 32): 173 and 189 % of control | T/C ([1]; dose: 65.0 mg/kg/injection, evaluated on day 7): 197 and 205 % of control | T/C ([1]; dose: 65.0 mg/kg/injection, evaluated on day 30): 194 and 211 % of control | T/C ([1]; dose: 65.0 mg/kg/injection, evaluated on day 31): 194 % of control | T/C ([1]; dose: 78.0 mg/kg/injection, evaluated on day 7): 186 and 197 % of control | T/C ([1]; dose: 78.0 mg/kg/injection, evaluated on day 32): 189 and 200 % of control | T/C ([1]; dose: 108.0 mg/kg/injection, evaluated on day 7): 211, 212, 218 % of control | T/C ([1]; dose: 108.0 mg/kg/injection, evaluated on day 30): 205 and 222 % of control | T/C ([1]; dose: 108.0 mg/kg/injection, evaluated on day 31): 211 % of control | T/C ([1]; dose: 108.0 mg/kg/injection, evaluated on day 33): 222 % of control | T/C ([1]; dose: 130.0 mg/kg/injection, evaluated on day 7): 194 and 201 % of control | T/C ([1]; dose: 130.0 mg/kg/injection, evaluated on day 32): 194 and 200 % of control | T/C ([1]; dose: 180.0 mg/kg/injection, evaluated on day 7): 215, 221, 226 % of control | T/C ([1]; dose: 180.0 mg/kg/injection, evaluated on day 30): 211 and 222 % of control | T/C ([1]; dose: 180.0 mg/kg/injection, evaluated on day 31): 222 % of control | T/C ([1]; dose: 180.0 mg/kg/injection, evaluated on day 33): 222 % of control | T/C ([1]; dose: 216.0 mg/kg/injection, evaluated on day 7): 187 and 221 % of control | T/C ([1]; dose: 216.0 mg/kg/injection, evaluated on day 32): 184 and 221 % of control | T/C ([1]; dose: 300.0 mg/kg/injection, evaluated on day 7): 218, 242, 244, 245 % of control | T/C ([1]; dose: 300.0 mg/kg/injection, evaluated on day 30): 238 and 244 % of control | T/C ([1]; dose: 300.0 mg/kg/injection, evaluated on day 31): 238 % of control | T/C ([1]; dose: 300.0 mg/kg/injection, evaluated on day 33): 250 % of control | T/C ([1]; dose: 360.0 mg/kg/injection, evaluated on day 7): 218 and 232 % of control | T/C ([1]; dose: 360.0 mg/kg/injection, evaluated on day 32): 205 and 231 % of control | T/C ([1]; dose: 500.0 mg/kg/injection, evaluated on day 7): 155 and 162 % of control | T/C ([1]; dose: 500.0 mg/kg/injection, evaluated on day 30): 194 % of control | T/C ([1]; dose: 500.0 mg/kg/injection, evaluated on day 31): 155 % of control | T/C ([1]; dose: 500.0 mg/kg/injection, evaluated on day 33): 166 % of control | T/C ([1]; dose: 600.0 mg/kg/injection, evaluated on day 7): 166 and 250 % of control | T/C ([1]; dose: 600.0 mg/kg/injection, evaluated on day 29): 115 % of control | T/C ([1]; dose: 600.0 mg/kg/injection, evaluated on day 32): 168 and 242 % of control [7 of 8 alive] | survivor count ([1]; dose: 800.0 mg/kg/injection, schedule: Q## X009 (sc)): 7 of 8 | T/C ([1]; dose: 833.0 mg/kg/injection, evaluated on day 7): 121 % of control | T/C ([1]; dose: 833.0 mg/kg/injection, evaluated on day 30): 122 % of control | T/C ([2]; dose: 37.5 mg/kg/injection, schedule: Q03HX008 (sc)): 130 % of control [7 of 8 alive] | T/C ([2]; dose: 65.0 mg/kg/injection, schedule: Q01DX015 (sc), evaluated on day 7): 144 % of control | T/C ([2]; dose: 65.0 mg/kg/injection, schedule: Q01DX015 (sc), evaluated on day 64): 144 % of control | T/C ([2]; dose: 75.0 mg/kg/injection, schedule: Q03HX008 (sc)): 140 % of control | T/C ([2]; dose: 150.0 mg/kg/injection, schedule: Q04DX003 (sc)): 145 % of control | T/C ([2]; dose: 400.0 mg/kg/injection, schedule: Q01DX001 (sc), evaluated on day 5): 131 % of control | T/C ([2]; dose: 400.0 mg/kg/injection, schedule: Q01DX001 (sc), evaluated on day 35): 130 % of control | T/C ([2]; dose: 400.0 mg/kg/injection, schedule: Q01DX009 (sc)): 133 % of control | T/C ([2]; dose: 400.0 mg/kg/injection, schedule: Q## X009 (sc)): 133 % of control [7 of 8 alive] | T/C ([2]; dose: 500.0 mg/kg/injection, schedule: Q01DX009 (sc), evaluated on day 7): 132 and 138 % of control | T/C ([2]; dose: 500.0 mg/kg/injection, schedule: Q01DX009 (sc), evaluated on day 30): 132 [7 of 8 alive] and 138 % of control | T/C ([2]; dose: 600.0 mg/kg/injection, schedule: Q01DX001 (sc)): 130 % of control | T/C ([2]; dose: 600.0 mg/kg/injection, schedule: Q01DX009 (sc), evaluated on day 7): 141 % of control | T/C ([2]; dose: 600.0 mg/kg/injection, schedule: Q## X009 (sc)): 141 % of control | T/C ([2]; dose: 800.0 mg/kg/injection, schedule: Q01DX001 (sc), evaluated on day 5): 137 % of control | T/C ([2]; dose: 800.0 mg/kg/injection, schedule: Q01DX001 (sc), evaluated on day 35): 130 % of control [6 of 8 alive] | T/C ([2]; dose: 800.0 mg/kg/injection, schedule: Q01DX009 (sc), evaluated on day 7): 134 % of control | T/C ([2]; dose: 800.0 mg/kg/injection, schedule: Q01DX009 (sc), evaluated on day 35): 130 % of control | T/C ([2]; dose: 833.0 mg/kg/injection, schedule: Q01DX009 (sc), evaluated on day 7): 129 and 135 % of control | T/C ([2]; dose: 833.0 mg/kg/injection, schedule: Q01DX009 (sc), evaluated on day 30): 135 % of control | T/C ([2]; dose: 833.0 mg/kg/injection, schedule: Q01DX009 (sc), evaluated on day 33): 133 % of control | T/C ([2]; dose: 833.0 mg/kg/injection, schedule: Q01DX014 (sc), evaluated on day 7): 130 % of control | T/C ([2]; dose: 833.0 mg/kg/injection, schedule: Q01DX014 (sc), evaluated on day 63): 130 % of control | T/C ([2]; dose: 1200.0 mg/kg/injection, schedule: Q01DX001 (sc)): 140 % of control | T/C ([2]; dose: 2400.0 mg/kg/injection, schedule: Q04DX003 (sc)): 130 % of control [7 of 8 alive]
